# Experimental data published in the supplement of paper PMC7024190.
# Where a name gives a salt, the structure may show the parent alone. This is one part of the list. Single values are uncertain here, since repeats match poorly.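 Human embryonic kidney cells were transiently transfected with a plasmid bearing a Renilla luciferase gene under the HSV-TK promoter. This first-round screen tests roughly ten thousand compounds for ones that increase reporter output.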
# Tested on: HEK 293FT
# Experiment: log relative Renilla luciferase luminescence (reporter expression vs reference, reference not stated) (log (base not stated)); higher = higher recombinant reporter expression
# Conditions: 10 µM; time after transfection 48 h
row,Structure (SMILES),log
1,COc1cc2c(cc1OC)-c1cc3nc4ccccc4nc3n1C(C)(C)C2,-0.0108
2,Cc1c(OCC(F)(F)F)ccnc1C[S+]([O-])c1nc2ccccc2[nH]1 (stereo unspecified) [Lansoprazole],-0.287
3,CC1(C)CC(=O)C(C2C3=C(CC(C)(C)CC3=O)Oc3ccccc32)C(=O)C1 (stereo unspecified),-0.0311
4,OCC(CO)N[C@H]1C[C@](O)(CO)[C@@H](O)[C@H](O)[C@H]1O [Voglibose],0.00213
5,COc1ccc2[nH]c([S+]([O-])Cc3ncc(C)c(OC)c3C)nc2c1 (stereo unspecified) [Omeprazole],-0.19
6,CC(CCc1ccc(O)cc1)NCCc1ccc(O)c(O)c1 (stereo unspecified) [Dobutamine hydrochloride],-0.0916
